# No constants are given. Whether binding was seen depends on the method and setting. Binding seen in cells or lysates may run through a third protein. These calls come from enrichment with a bait or labelling near it, and not all partners need be listed.
# T1: CLN7 (human (endogenous in SH-SY5Y)) (UniProt Q8NHS3)
# T1 sequence: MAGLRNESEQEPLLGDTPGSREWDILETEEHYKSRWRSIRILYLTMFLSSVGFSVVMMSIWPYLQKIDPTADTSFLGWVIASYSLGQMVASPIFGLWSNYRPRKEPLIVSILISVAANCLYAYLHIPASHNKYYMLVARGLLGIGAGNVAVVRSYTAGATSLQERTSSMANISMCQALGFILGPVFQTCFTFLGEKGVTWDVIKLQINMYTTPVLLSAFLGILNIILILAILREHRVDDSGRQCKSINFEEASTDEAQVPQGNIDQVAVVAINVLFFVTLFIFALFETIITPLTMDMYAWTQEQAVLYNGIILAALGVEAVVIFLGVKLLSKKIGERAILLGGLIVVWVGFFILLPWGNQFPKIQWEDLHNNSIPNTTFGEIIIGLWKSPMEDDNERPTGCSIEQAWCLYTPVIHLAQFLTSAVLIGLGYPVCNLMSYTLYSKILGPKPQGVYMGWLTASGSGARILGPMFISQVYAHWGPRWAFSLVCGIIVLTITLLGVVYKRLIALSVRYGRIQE
# Biological target: T1, CLN7 (human (endogenous in SH-SY5Y))
# Assay: affinity purification with mass spectrometry; endogenous CLN7 immunoprecipitated from 2.5 mg SH-SY5Y lysate with a polyclonal anti-CLN7 antibody raised against L9 (351-421aa, Proteintech) on G-sepharose beads; IgG as non-specific binding control; 4 independent replicates; cells under steady state culture conditions
row,binding,Binder
1,binds,"DDX56 (protein, UniProt Q9NY93 1-547) MEDSEALGFEHMGLDPRLLQAVTDLGWSRPTLIQEKAIPLALEGKDLLARARTGSGKTAAYAIPMLQLLLHRKATGPVVEQAVRGLVLVPTKELARQAQSMIQQLATYCARDVRVANVSAAEDSVSQRAVLMEKPDVVVGTPSRILSHLQQDSLKLRDSLELLVVDEADLLFSFGFEEELKSLLCHLPRIYQAFLMSATFNEDVQALKELILHNPVTLKLQESQLPGPDQLQQFQVVCETEEDKFLLLYALLKLSLIRGKSLLFVNTLERSYRLRLFLEQFSIPTCVLNGELPLRSRCHIISQFNQGFYDCVIATDAEVLGAPVKGKRRGRGPKGDKASDPEAGVARGIDFHHVSAVLNFDLPPTPEAYIHRAGRTARANNPGIVLTFVLPTEQFHLGKIEELLSGENRGPILLPYQFRMEEIEGFRYRCRDAMRSVTKQAIREARLKEIKEELLHSEKLKTYFEDNPRDLQLLRHDLPLHPAVVKPHLGHVPDYLVPPALRGLVRPHKKRKKLSSSCRKAKRAKSQNPLRSFKHKGKKFRPTAKPS"
2,binds,"DDX46 (protein, UniProt Q7L014 1-1031) MGRESRHYRKRSASRGRSGSRSRSRSPSDKRSKRGDDRRSRSRDRDRRRERSRSRDKRRSRSRDRKRLRRSRSRERDRSRERRRSRSRDRRRSRSRSRGRRSRSSSPGNKSKKTENRSRSKEKTDGGESSKEKKKDKDDKEDEKEKDAGNFDQNKLEEEMRKRKERVEKWREEQRKKAMENIGELKKEIEEMKQGKKWSLEDDDDDEDDPAEAEKEGNEMEGEELDPLDAYMEEVKEEVKKFNMRSVKGGGGNEKKSGPTVTKVVTVVTTKKAVVDSDKKKGELMENDQDAMEYSSEEEEVDLQTALTGYQTKQRKLLEPVDHGKIEYEPFRKNFYVEVPELAKMSQEEVNVFRLEMEGITVKGKGCPKPIKSWVQCGISMKILNSLKKHGYEKPTPIQTQAIPAIMSGRDLIGIAKTGSGKTIAFLLPMFRHIMDQRSLEEGEGPIAVIMTPTRELALQITKECKKFSKTLGLRVVCVYGGTGISEQIAELKRGAEIIVCTPGRMIDMLAANSGRVTNLRRVTYVVLDEADRMFDMGFEPQVMRIVDNVRPDRQTVMFSATFPRAMEALARRILSKPIEVQVGGRSVVCSDVEQQVIVIEEEKKFLKLLELLGHYQESGSVIIFVDKQEHADGLLKDLMRASYPCMSLHGGIDQYDRDSIINDFKNGTCKLLVATSVAARGLDVKHLILVVNYSCPNHYEDYVHRAGRTGRAGNKGYAYTFITEDQARYAGDIIKALELSGTAVPPDLEKLWSDFKDQQKAEGKIIKKSSGFSGKGFKFDETEQALANERKKLQKAALGLQDSDDEDAAVDIDEQIESMFNSKKRVKDMAAPGTSSVPAPTAGNAEKLEIAKRLALRINAQKNLGIESQDVMQQATNAILRGGTILAPTVSAKTIAEQLAEKINAKLNYVPLEKQEEERQDGGQNESFKRYEEELEINDFPQTARWKVTSKEALQRISEYSEAAITIRGTYFPPGKEPKEGERKIYLAIESANELAVQKAKAEITRLIKEELIRLQNSYQPTNKGRYKVL"
3,binds,"DHX57 (protein, UniProt Q6P158 1-1386) MSSSVRRKGKPGKGGGKGSSRGGRGGRSHASKSHGSGGGGGGGGGGGGGNRKASSRIWDDGDDFCIFSESRRPSRPSNSNISKGESRPKWKPKAKVPLQTLHMTSENQEKVKALLRDLQEQDADAGSERGLSGEEEDDEPDCCNDERYWPAGQEPSLVPDLDPLEYAGLASVEPYVPEFTVSPFAVQKLSRYGFNTERCQAVLRMCDGDVGASLEHLLTQCFSETFGERMKISEAVNQISLDECMEQRQEEAFALKSICGEKFIERIQNRVWTIGLELEYLTSRFRKSKPKESTKNVQENSLEICKFYLKGNCKFGSKCRFKHEVPPNQIVGRIERSVDDSHLNAIEDASFLYELEIRFSKDHKYPYQAPLVAFYSTNENLPLACRLHISEFLYDKALTFAETSEPVVYSLITLLEEESEIVKLLTNTHHKYSDPPVNFLPVPSRTRINNPACHKTVIPNNSFVSNQIPEVEKASESEESDEDDGPAPVIVENESYVNLKKKISKRYDWQAKSVHAENGKICKQFRMKQASRQFQSILQERQSLPAWEERETILNLLRKHQVVVISGMTGCGKTTQIPQFILDDSLNGPPEKVANIICTQPRRISAISVAERVAKERAERVGLTVGYQIRLESVKSSATRLLYCTTGVLLRRLEGDTALQGVSHIIVDEVHERTEESDFLLLVLKDIVSQRPGLQVILMSATLNAELFSDYFNSCPVITIPGRTFPVDQFFLEDAIAVTRYVLQDGSPYMRSMKQISKEKLKARRNRTAFEEVEEDLRLSLHLQDQDSVKDAVPDQQLDFKQLLARYKGVSKSVIKTMSIMDFEKVNLELIEALLEWIVDGKHSYPPGAILVFLPGLAEIKMLYEQLQSNSLFNNRRSNRCVIHPLHSSLSSEEQQAVFVKPPAGVTKIIISTNIAETSITIDDVVYVIDSGKMKEKRYDASKGMESLEDTFVSQANALQRKGRAGRVASGVCFHLFTSHHYNHQLLKQQLPEIQRVPLEQLCLRIKILEMFSAHNLQSVFSRLIEPPHTDSLRASKIRLRDLGALTPDERLTPLGYHLASLPVDVRIGKLMLFGSIFRCLDPALTIAASLAFKSPFVSPWDKKEEANQKKLEFAFANSDYLALLQAYKGWQLSTKEGVRASYNYCRQNFLSGRVLQEMASLKRQFTELLSDIGFAREGLRAREIEKRAQGGDGVLDATGEEANSNAENPKLISAMLCAALYPNVVQVKSPEGKFQKTSTGAVRMQPKSAELKFVTKNDGYVHIHPSSVNYQVRHFDSPYLLYHEKIKTSRVFIRDCSMVSVYPLVLFGGGQVNVQLQRGEFVVSLDDGWIRFVAASHQVAELVKELRCELDQLLQDKIKNPSIDLCTCPRGSRIISTIVKLVTTQ"
4,binds,"DHX29 (protein, UniProt Q7Z478 1-1369) MGGKNKKHKAPAAAVVRAAVSASRAKSAEAGIAGEAQSKKPVSRPATAAAAAAGSREPRVKQGPKIYSFNSTNDSSGPANLDKSILKVVINNKLEQRIIGVINEHKKQNNDKGMISGRLTAKKLQDLYMALQAFSFKTKDIEDAMTNTLLYGGDLHSALDWLCLNLSDDALPEGFSQEFEEQQPKSRPKFQSPQIQATISPPLQPKTKTYEEDPKSKPKKEEKNMEVNMKEWILRYAEQQNEEEKNENSKSLEEEEKFDPNERYLHLAAKLLDAKEQAATFKLEKNKQGQKEAQEKIRKFQREMETLEDHPVFNPAMKISHQQNERKKPPVATEGESALNFNLFEKSAAATEEEKDKKKEPHDVRNFDYTARSWTGKSPKQFLIDWVRKNLPKSPNPSFEKVPVGRYWKCRVRVIKSEDDVLVVCPTILTEDGMQAQHLGATLALYRLVKGQSVHQLLPPTYRDVWLEWSDAEKKREELNKMETNKPRDLFIAKLLNKLKQQQQQQQQHSENKRENSEDPEESWENLVSDEDFSALSLESANVEDLEPVRNLFRKLQSTPKYQKLLKERQQLPVFKHRDSIVETLKRHRVVVVAGETGSGKSTQVPHFLLEDLLLNEWEASKCNIVCTQPRRISAVSLANRVCDELGCENGPGGRNSLCGYQIRMESRACESTRLLYCTTGVLLRKLQEDGLLSNVSHVIVDEVHERSVQSDFLLIILKEILQKRSDLHLILMSATVDSEKFSTYFTHCPILRISGRSYPVEVFHLEDIIEETGFVLEKDSEYCQKFLEEEEEVTINVTSKAGGIKKYQEYIPVQTGAHADLNPFYQKYSSRTQHAILYMNPHKINLDLILELLAYLDKSPQFRNIEGAVLIFLPGLAHIQQLYDLLSNDRRFYSERYKVIALHSILSTQDQAAAFTLPPPGVRKIVLATNIAETGITIPDVVFVIDTGRTKENKYHESSQMSSLVETFVSKASALQRQGRAGRVRDGFCFRMYTRERFEGFMDYSVPEILRVPLEELCLHIMKCNLGSPEDFLSKALDPPQLQVISNAMNLLRKIGACELNEPKLTPLGQHLAALPVNVKIGKMLIFGAIFGCLDPVATLAAVMTEKSPFTTPIGRKDEADLAKSALAMADSDHLTIYNAYLGWKKARQEGGYRSEITYCRRNFLNRTSLLTLEDVKQELIKLVKAAGFSSSTTSTSWEGNRASQTLSFQEIALLKAVLVAGLYDNVGKIIYTKSVDVTEKLACIVETAQGKAQVHPSSVNRDLQTHGWLLYQEKIRYARVYLRETTLITPFPVLLFGGDIEVQHRERLLSIDGWIYFQAPVKIAVIFKQLRVLIDSVLRKKLENPKMSLENDKILQIITELIKTENN"
5,binds,"DHX30 (protein, UniProt Q7L2E3 1-1194) MFSLDSFRKDRAQHRQRQCKLPPPRLPPMCVNPTPGGTISRASRDLLKEFPQPKNLLNSVIGRALGISHAKDKLVYVHTNGPKKKKVTLHIKWPKSVEVEGYGSKKIDAERQAAAAACQLFKGWGLLGPRNELFDAAKYRVLADRFGSPADSWWRPEPTMPPTSWRQLNPESIRPGGPGGLSRSLGREEEEDEEEELEEGTIDVTDFLSMTQQDSHAPLRDSRGSSFEMTDDDSAIRALTQFPLPKNLLAKVIQIATSSSTAKNLMQFHTVGTKTKLSTLTLLWPCPMTFVAKGRRKAEAENKAAALACKKLKSLGLVDRNNEPLTHAMYNLASLRELGETQRRPCTIQVPEPILRKIETFLNHYPVESSWIAPELRLQSDDILPLGKDSGPLSDPITGKPYVPLLEAEEVRLSQSLLELWRRRGPVWQEAPQLPVDPHRDTILNAIEQHPVVVISGDTGCGKTTRIPQLLLERYVTEGRGARCNVIITQPRRISAVSVAQRVSHELGPSLRRNVGFQVRLESKPPSRGGALLFCTVGILLRKLQSNPSLEGVSHVIVDEVHERDVNTDFLLILLKGLQRLNPALRLVLMSATGDNERFSRYFGGCPVIKVPGFMYPVKEHYLEDILAKLGKHQYLHRHRHHESEDECALDLDLVTDLVLHIDARGEPGGILCFLPGWQEIKGVQQRLQEALGMHESKYLILPVHSNIPMMDQKAIFQQPPVGVRKIVLATNIAETSITINDIVHVVDSGLHKEERYDLKTKVSCLETVWVSRANVIQRRGRAGRCQSGFAYHLFPRSRLEKMVPFQVPEILRTPLENLVLQAKIHMPEKTAVEFLSKAVDSPNIKAVDEAVILLQEIGVLDQREYLTTLGQRLAHISTDPRLAKAIVLAAIFRCLHPLLVVVSCLTRDPFSSSLQNRAEVDKVKALLSHDSGSDHLAFVRAVAGWEEVLRWQDRSSRENYLEENLLYAPSLRFIHGLIKQFSENIYEAFLVGKPSDCTLASAQCNEYSEEEELVKGVLMAGLYPNLIQVRQGKVTRQGKFKPNSVTYRTKSGNILLHKSTINREATRLRSRWLTYFMAVKSNGSVFVRDSSQVHPLAVLLLTDGDVHIRDDGRRATISLSDSDLLRLEGDSRTVRLLKELRRALGRMVERSLRSELAALPPSVQEEHGQLLALLAELLRGPCGSFDVRKTADD"

# Source: article PMC12579238
